# PubChem BioAssay AID1159584 | Peter MacCallum Cancer Centre | 2016
# Screen: 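Genes whose loss is lethal only together with E-cadherin loss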 (primary screen)
# System: human MCF10A breast epithelial cells, parental and CDH1-null
# Reagents: siRNA against human genes
# Measurement: 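ATP luminescence (CellTiter-Glo) viability per line relative to mean mock wells over all plates, and the ratio of CDH1-null to parental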
# Scale: CDH1-null / parental viability ratio: higher = CDH1-null cells survive relatively better than parental
# The whole screen tested about 18,000 reagents; below is an unselected part. Further read-outs or replicates are left out here. No sequences are given here. The record does not give: the amount of reagent, the time to read-out.
gene knocked down,CDH1-null / parental viability ratio
H2BC3,1.16
MTNR1B,0.75
MTCP1,0.9
PTPN21,1.17
SERINC1,1.11
MED14,1.18
ZNF655,1.04
HECTD2,1.06
WNT2,1.1
RRP7A,1.04
ZNF322,1.5
APOL1,0.76

The list goes on, starting with the last 3 of the part before.
gene knocked down,CDH1-null / parental viability ratio
RRP7A,1.04
ZNF322,1.5
APOL1,0.76
TRIM64,0.92
TDRD6,0.8
CXXC5,1.35
GALNT11,0.63
GPALPP1,0.87
TIPIN,1
HCN2,1.04
LRRK1,1.12
IL15RA,1.32
UTP3,1.27
CHL1,1.06
FAM153A,1.15
XIRP2,1.03
MKNK2,0.83
ANXA10,0.82
DLX6,0.93
